One data set addresses UP1 (hnRNP A1 fragment) (UniProt P49312). In words: inhibition of the protein. Conditions: purified recombinant protein, protein details: GST removed by thrombin, single-stranded DNA.
Data set [1] concerns GST-UP1 delta2 (RRM2 deleted) RRM2 deleted (BglII fill-in). The data set can be described thus: inhibition of the protein. Conditions: does not prevent telomerase extension; purified recombinant protein; protein details: GST; label: 5'-32P; single-stranded DNA.
For data set [2], the target named is GST-A1 (hnRNP A1) (Mus musculus) (UniProt P49312). In words: inhibition of the protein. The settings on record: inhibits telomerase extension in HeLa S100; purified recombinant protein; protein details: GST; label: 5'-32P; single-stranded DNA.
In data set [3] the target is rA1 (hnRNP A1) (Mus musculus) (UniProt P49312). The data set can be described thus: pull-down. The settings on record: TS10 column; ternary complex with hTR-A; purified recombinant protein; protein details: glutathione-Sepharose purified; label: 5'-32P; single-stranded DNA.
The target of data set [4] is GST-A1 (hnRNP A1) (Mus musculus) (UniProt P49312). The data set can be described thus: footprint. The settings on record: protects telomeric DNA from DNase I; purified recombinant protein; protein details: GST; label: 5'-32P; single-stranded DNA.
[5] abbreviates: 8 uM UP1 inhibits telomerase extension.

Protein sequences, listed by entry. Tags and fused reporters are not part of them. Residues count along the entry.
UniProt P49312, 1-196: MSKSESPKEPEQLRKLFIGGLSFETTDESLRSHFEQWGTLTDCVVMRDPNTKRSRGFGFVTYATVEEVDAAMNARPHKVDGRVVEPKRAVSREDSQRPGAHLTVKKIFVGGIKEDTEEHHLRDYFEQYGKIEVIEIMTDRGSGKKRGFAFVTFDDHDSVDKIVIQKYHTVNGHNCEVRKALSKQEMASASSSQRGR

For some of these results: The exact form of at least one protein or probe is not confirmed. For some of these results: Negatives hold for the conditions tested.

As to AATCCGTCGAGCAGAGTT [TS], the functional effect result with UP1 (hnRNP A1 fragment) (setting [5]) is given as “active”.

On to AATCCGTCGAGTAGGGTT [TS1], for which the functional effect result in the data set with UP1 (hnRNP A1 fragment) (setting [5]) is recorded as “active”.

For “TTAGGGTTAGGGTTAGGGTTAGGGTTAGGGTTAGGGTTAGGGTTAGGGTTAGGGTTAGGG [TS10]”, the functional effect result in data set [1] is “not active”; with UP1 (hnRNP A1 fragment) (inhibits telomerase extension, also protects from DNase I, exonuclease I and Bal31, and represses TdT, label: 5'-32P) it was “active”; in data set [2], “active”; in data set [4], “active”. Also, the binding result in data set [3] is reported as “binds”.
